Drawing on PMC3274522, this text covers binding for one molecule.

Results are given in words; binding and its absence hold for the method and conditions named. Binding seen in cells or lysates may run through a third protein. Some entries that bind do so weakly or less than the wild type. Tags and fused reporters may be left off the sequences shown.

The test addresses T1, phospho-inositide-dependent kinase 1 (PDK1), V5-tagged (UniProt O15530).
T1 sequence: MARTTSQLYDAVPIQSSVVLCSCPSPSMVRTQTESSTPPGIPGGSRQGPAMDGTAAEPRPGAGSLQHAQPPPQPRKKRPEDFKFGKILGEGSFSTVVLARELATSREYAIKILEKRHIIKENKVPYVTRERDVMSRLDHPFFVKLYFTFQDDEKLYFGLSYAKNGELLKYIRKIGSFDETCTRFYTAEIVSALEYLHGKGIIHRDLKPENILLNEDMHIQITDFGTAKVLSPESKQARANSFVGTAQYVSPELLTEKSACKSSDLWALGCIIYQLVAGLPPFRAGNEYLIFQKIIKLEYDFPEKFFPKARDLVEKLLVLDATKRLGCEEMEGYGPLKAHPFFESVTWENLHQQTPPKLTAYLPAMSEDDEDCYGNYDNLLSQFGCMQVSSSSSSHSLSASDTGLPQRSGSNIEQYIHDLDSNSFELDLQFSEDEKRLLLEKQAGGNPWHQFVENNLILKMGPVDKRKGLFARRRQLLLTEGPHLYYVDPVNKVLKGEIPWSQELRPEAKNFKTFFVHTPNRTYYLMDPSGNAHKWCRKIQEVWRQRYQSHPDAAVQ
The experiment in a line: co-IP; HEK293T cells co-transfected with V5-PDK1 and MYC-USP4; PDK1 immunoprecipitated with anti-V5 beads; IP and input probed with anti-V5 and MYC antibodies; extracts in RIPA or ELB buffer.

B1: Ubiquitin-Specific Protease 4 (USP4), MYC-tagged (enzyme, UniProt Q13107 1-963)
chain: MAEGGGCRERPDAETQKSELGPLMRTTLQRGAQWYLIDSRWFKQWKKYVGFDSWDMYNVGEHNLFPGPIDNSGLFSDPESQTLKEHLIDELDYVLVPTEAWNKLLNWYGCVEGQQPIVRKVVEHGLFVKHCKVEVYLLELKLCENSDPTNVLSCHFSKADTIATIEKEMRKLFNIPAERETRLWNKYMSNTYEQLSKLDNTVQDAGLYQGQVLVIEPQNEDGTWPRQTLQSKSSTAPSRNFTTSPKSSASPYSSVSASLIANGDSTSTCGMHSSGVSRGGSGFSASYNCQEPPSSHIQPGLCGLGNLGNTCFMNSALQCLSNTAPLTDYFLKDEYEAEINRDNPLGMKGEIAEAYAELIKQMWSGRDAHVAPRMFKTQVGRFAPQFSGYQQQDSQELLAFLLDGLHEDLNRVKKKPYLELKDANGRPDAVVAKEAWENHRLRNDSVIVDTFHGLFKSTLVCPECAKVSVTFDPFCYLTLPLPLKKDRVMEVFLVPADPHCRPTQYRVTVPLMGAVSDLCEALSRLSGIAAENMVVADVYNHRFHKIFQMDEGLNHIMPRDDIFVYEVCSTSVDGSECVTLPVYFRERKSRPSSTSSASALYGQPLLLSVPKHKLTLESLYQAVCDRISRYVKQPLPDEFGSSPLEPGACNGSRNSCEGEDEEEMEHQEEGKEQLSETEGSGEDEPGNDPSETTQKKIKGQPCPKRLFTFSLVNSYGTADINSLAADGKLLKLNSRSTLAMDWDSETRRLYYDEQESEAYEKHVSMLQPQKKKKTTVALRDCIELFTTMETLGEHDPWYCPNCKKHQQATKKFDLWSLPKILVVHLKRFSYNRYWRDKLDTVVEFPIRGLNMSEFVCNLSARPYVYDLIAVSNHYGAMGVGHYTAYAKNKLNGKWYYFDDSNVSLASEDQIVTKAAYVLFYQRRDDEFYKTPSLSSSGSSDGGTRPSSSQQGFGDDEACSMDTN
B1: the binding entry was “binds”.
